Data taken from PMC8805157 (2021).
No constants are given. Whether binding was seen depends on the method and setting. For some assays here: In cells and extracts the contact can be indirect. Some binding calls cover weakened binding; strength is not graded here. Where a sequence is shown, tags or fusion partners need not be part of it.

What was measured:
[1] = target: T1, BD-Atg11 (wild type) (S. cerevisiae) (UniProt Q12527); test: two-hybrid; BD-Atg11 mutants (bait) with AD-Atg19 (prey) in the WT Y2H strain PJ69-4A; plates
T1 sequence: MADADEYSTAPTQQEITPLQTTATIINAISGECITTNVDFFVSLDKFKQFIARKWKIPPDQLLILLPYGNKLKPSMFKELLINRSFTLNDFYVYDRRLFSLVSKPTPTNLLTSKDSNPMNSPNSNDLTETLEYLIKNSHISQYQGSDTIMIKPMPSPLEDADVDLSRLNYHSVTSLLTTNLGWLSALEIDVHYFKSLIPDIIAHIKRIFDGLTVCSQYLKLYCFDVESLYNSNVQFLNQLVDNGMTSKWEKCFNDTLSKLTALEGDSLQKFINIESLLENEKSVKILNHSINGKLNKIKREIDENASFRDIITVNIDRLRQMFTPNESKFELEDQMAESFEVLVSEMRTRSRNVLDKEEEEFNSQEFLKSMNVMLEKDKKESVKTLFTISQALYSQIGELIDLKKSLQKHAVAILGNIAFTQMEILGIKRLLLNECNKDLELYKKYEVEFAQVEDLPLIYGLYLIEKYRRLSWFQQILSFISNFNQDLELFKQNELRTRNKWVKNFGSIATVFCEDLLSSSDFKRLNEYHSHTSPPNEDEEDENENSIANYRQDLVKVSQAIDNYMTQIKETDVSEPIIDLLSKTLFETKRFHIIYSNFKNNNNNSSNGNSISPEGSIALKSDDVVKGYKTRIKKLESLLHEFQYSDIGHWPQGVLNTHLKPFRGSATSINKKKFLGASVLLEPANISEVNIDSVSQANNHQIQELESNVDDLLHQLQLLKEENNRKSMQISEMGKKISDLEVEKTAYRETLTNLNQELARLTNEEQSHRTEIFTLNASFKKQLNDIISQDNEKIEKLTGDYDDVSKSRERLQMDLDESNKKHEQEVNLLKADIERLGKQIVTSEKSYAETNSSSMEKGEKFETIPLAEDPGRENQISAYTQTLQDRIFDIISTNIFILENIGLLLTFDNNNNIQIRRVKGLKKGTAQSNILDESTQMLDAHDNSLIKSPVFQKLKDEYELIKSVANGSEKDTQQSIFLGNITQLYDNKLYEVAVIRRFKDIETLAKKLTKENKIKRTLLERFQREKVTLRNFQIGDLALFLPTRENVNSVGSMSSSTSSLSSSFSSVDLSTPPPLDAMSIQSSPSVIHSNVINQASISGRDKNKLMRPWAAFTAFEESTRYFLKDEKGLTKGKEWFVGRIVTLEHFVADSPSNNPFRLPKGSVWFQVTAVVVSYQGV

[2] = target: T2, BD-Atg11 CTR (a.a. 854-1178) (S. cerevisiae) (UniProt Q12527); test: as above
T2 sequence: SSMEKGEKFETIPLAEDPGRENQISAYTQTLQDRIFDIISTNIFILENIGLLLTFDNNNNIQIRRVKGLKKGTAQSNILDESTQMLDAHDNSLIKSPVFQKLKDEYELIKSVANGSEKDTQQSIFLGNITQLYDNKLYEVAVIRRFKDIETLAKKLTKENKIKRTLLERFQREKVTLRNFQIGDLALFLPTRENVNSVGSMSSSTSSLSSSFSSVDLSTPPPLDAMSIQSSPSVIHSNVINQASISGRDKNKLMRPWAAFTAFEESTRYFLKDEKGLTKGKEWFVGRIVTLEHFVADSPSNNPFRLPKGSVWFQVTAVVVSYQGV

[3] = target: T1, BD-Atg11 (wild type) (S. cerevisiae); test: two-hybrid; quantitative Y2H assay in log-phase liquid cultures expressing BD-Atg11 mutants and AD-Atg19
[4] = target: T2, BD-Atg11 CTR (a.a. 854-1178) (S. cerevisiae); test: as above
[5] = target: T1, BD-Atg11 (wild type) (S. cerevisiae); test: two-hybrid; BD-Atg11 and mutants (bait) with AD-Atg19 (prey) in the MKO strain; growth on SMD -ura, -leu, -ade plates
[6] = target: T2, BD-Atg11 CTR (a.a. 854-1178) (S. cerevisiae); test: as above
Atg9-PA (S. cerevisiae) = target: T3, Atg9-PA (S. cerevisiae) (UniProt Q12142); test: co-IP; PA-tagged bait (Atg9-PA or PA-Atg19) precipitated on IgG-Sepharose from spheroplast lysate; proteins overexpressed with a CUP1 promoter in an atg11∆ strain; GFP-Atg11 detected with anti-GFP
T3 sequence: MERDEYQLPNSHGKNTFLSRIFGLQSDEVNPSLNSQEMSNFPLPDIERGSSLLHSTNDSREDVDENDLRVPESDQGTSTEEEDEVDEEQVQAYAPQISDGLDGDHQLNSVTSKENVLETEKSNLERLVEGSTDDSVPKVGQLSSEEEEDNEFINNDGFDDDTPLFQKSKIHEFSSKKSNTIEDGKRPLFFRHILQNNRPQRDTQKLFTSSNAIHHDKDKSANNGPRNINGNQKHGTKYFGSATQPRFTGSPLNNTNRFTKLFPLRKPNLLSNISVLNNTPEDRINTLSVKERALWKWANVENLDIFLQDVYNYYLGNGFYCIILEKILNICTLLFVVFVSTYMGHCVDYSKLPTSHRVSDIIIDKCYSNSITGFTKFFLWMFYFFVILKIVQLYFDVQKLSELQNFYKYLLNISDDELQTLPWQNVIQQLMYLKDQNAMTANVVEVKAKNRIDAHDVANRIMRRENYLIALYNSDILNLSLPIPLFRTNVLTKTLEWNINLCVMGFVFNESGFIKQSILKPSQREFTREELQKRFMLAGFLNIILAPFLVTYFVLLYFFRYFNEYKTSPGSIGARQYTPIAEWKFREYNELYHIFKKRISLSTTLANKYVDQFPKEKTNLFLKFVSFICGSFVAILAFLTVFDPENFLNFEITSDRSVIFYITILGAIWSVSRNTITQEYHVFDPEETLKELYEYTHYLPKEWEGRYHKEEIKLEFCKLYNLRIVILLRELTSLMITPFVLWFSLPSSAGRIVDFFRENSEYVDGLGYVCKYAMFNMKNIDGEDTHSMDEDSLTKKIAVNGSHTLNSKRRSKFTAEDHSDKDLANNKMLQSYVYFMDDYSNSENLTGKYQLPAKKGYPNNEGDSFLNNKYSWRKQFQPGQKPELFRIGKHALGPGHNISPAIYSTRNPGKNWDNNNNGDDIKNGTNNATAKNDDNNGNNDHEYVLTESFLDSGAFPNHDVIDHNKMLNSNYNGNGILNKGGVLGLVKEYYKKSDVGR

PA-Atg19 (S. cerevisiae) = target: T4, PA-Atg19 (S. cerevisiae) (UniProt P35193); test: as above
T4 sequence: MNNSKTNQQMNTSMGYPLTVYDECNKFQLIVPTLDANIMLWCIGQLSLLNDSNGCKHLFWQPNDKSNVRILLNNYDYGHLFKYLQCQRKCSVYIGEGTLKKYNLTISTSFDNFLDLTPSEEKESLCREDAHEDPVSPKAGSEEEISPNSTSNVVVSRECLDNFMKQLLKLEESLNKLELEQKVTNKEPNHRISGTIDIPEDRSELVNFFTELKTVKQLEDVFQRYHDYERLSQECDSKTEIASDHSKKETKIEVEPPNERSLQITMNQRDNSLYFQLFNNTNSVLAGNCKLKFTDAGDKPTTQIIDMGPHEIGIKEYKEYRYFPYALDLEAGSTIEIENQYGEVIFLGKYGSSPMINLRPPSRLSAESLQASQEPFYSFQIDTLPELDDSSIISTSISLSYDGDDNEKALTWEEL

Measured: binding

B1: AD-Atg19 (protein, UniProt P35193 1-415)
chain: MNNSKTNQQMNTSMGYPLTVYDECNKFQLIVPTLDANIMLWCIGQLSLLNDSNGCKHLFWQPNDKSNVRILLNNYDYGHLFKYLQCQRKCSVYIGEGTLKKYNLTISTSFDNFLDLTPSEEKESLCREDAHEDPVSPKAGSEEEISPNSTSNVVVSRECLDNFMKQLLKLEESLNKLELEQKVTNKEPNHRISGTIDIPEDRSELVNFFTELKTVKQLEDVFQRYHDYERLSQECDSKTEIASDHSKKETKIEVEPPNERSLQITMNQRDNSLYFQLFNNTNSVLAGNCKLKFTDAGDKPTTQIIDMGPHEIGIKEYKEYRYFPYALDLEAGSTIEIENQYGEVIFLGKYGSSPMINLRPPSRLSAESLQASQEPFYSFQIDTLPELDDSSIISTSISLSYDGDDNEKALTWEEL
not listed: Atg9-PA (S. cerevisiae) | PA-Atg19 (S. cerevisiae)
binds: all other assays above

B2: GFP-Atg11 (wild type) (protein, UniProt Q12527 1-1178)
chain: MADADEYSTAPTQQEITPLQTTATIINAISGECITTNVDFFVSLDKFKQFIARKWKIPPDQLLILLPYGNKLKPSMFKELLINRSFTLNDFYVYDRRLFSLVSKPTPTNLLTSKDSNPMNSPNSNDLTETLEYLIKNSHISQYQGSDTIMIKPMPSPLEDADVDLSRLNYHSVTSLLTTNLGWLSALEIDVHYFKSLIPDIIAHIKRIFDGLTVCSQYLKLYCFDVESLYNSNVQFLNQLVDNGMTSKWEKCFNDTLSKLTALEGDSLQKFINIESLLENEKSVKILNHSINGKLNKIKREIDENASFRDIITVNIDRLRQMFTPNESKFELEDQMAESFEVLVSEMRTRSRNVLDKEEEEFNSQEFLKSMNVMLEKDKKESVKTLFTISQALYSQIGELIDLKKSLQKHAVAILGNIAFTQMEILGIKRLLLNECNKDLELYKKYEVEFAQVEDLPLIYGLYLIEKYRRLSWFQQILSFISNFNQDLELFKQNELRTRNKWVKNFGSIATVFCEDLLSSSDFKRLNEYHSHTSPPNEDEEDENENSIANYRQDLVKVSQAIDNYMTQIKETDVSEPIIDLLSKTLFETKRFHIIYSNFKNNNNNSSNGNSISPEGSIALKSDDVVKGYKTRIKKLESLLHEFQYSDIGHWPQGVLNTHLKPFRGSATSINKKKFLGASVLLEPANISEVNIDSVSQANNHQIQELESNVDDLLHQLQLLKEENNRKSMQISEMGKKISDLEVEKTAYRETLTNLNQELARLTNEEQSHRTEIFTLNASFKKQLNDIISQDNEKIEKLTGDYDDVSKSRERLQMDLDESNKKHEQEVNLLKADIERLGKQIVTSEKSYAETNSSSMEKGEKFETIPLAEDPGRENQISAYTQTLQDRIFDIISTNIFILENIGLLLTFDNNNNIQIRRVKGLKKGTAQSNILDESTQMLDAHDNSLIKSPVFQKLKDEYELIKSVANGSEKDTQQSIFLGNITQLYDNKLYEVAVIRRFKDIETLAKKLTKENKIKRTLLERFQREKVTLRNFQIGDLALFLPTRENVNSVGSMSSSTSSLSSSFSSVDLSTPPPLDAMSIQSSPSVIHSNVINQASISGRDKNKLMRPWAAFTAFEESTRYFLKDEKGLTKGKEWFVGRIVTLEHFVADSPSNNPFRLPKGSVWFQVTAVVVSYQGV
binds: Atg9-PA (S. cerevisiae) | PA-Atg19 (S. cerevisiae)
